{
  "source": "patent US20060019987A1",
  "about": "“Methods and compositions for inhibiting, destroying, and/or inactivating viruses” (priority 2004, published 2006)",
  "system": "hAd4 viral particles",
  "conditions": "hAd4 particle suspension treated 1 h at room temperature; CPC 0,05% in PBS or SinoFresh; FIG. 4",
  "protocol": "A suspension of hAd4 viral particles was treated with PBS, CPC 0,05% in PBS or SinoFresh™ for 1 h at room temperature. Shown there is the electron microscopy of hAd4 viral particles treated with PBS, CPC 0.05% in PBS or SinoFresh® product for 1 h at room temperature.",
  "data": [
    {"smiles": "CCCCCCCCCCCCCCCC[n+]1ccccc1", "note": "[CPC, 1-hexa-decyl pyridinium chloride]", "values": [
      {"measurement": "disruption of viral particles (electron microscopy)", "value": "total disruption of viral particles"}
    ]}
  ]
}
